In PubChem BioAssay AID2685 (National Center for Advancing Translational Sciences (NCATS), 2010) one finds AC50 and cell number change data, which are given here for 58 compounds.

This experiment can be described thus: qHTS Assay for Lipid Storage Modulators in Drosophila S3 Cells.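 For cell number change: cells counted by Cell Tracker Red CMTPX staining in the red channel.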 Conditions: BODIPY lipid droplet fluorescence, 18-24 h; for cell number change: measured here: cell count max response, cells fed with added oleic acid. The method in brief:
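Laser-scanning cytometry quantifies lipid droplet accumulation (500–530 nm total intensity; droplet/cell object ratio) in oleic acid-fed (400 uM added) Drosophila S3 cells treated with a concentration series. 20 uM Triacsin C defined 100% inhibition.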
For orientation: qHTS replaces the single test concentration by a dilution series.

Where [1] appears, read: measured here: cell number channel AC50, cells fed with added oleic acid.
Setting [2] is: measured here: lipid fluorescence (Fed channel) AC50, cells fed with added oleic acid.

SMILES strings stand for the structures. The list shows a part of the results. The main result of the screen is listed elsewhere. These columns were measured beside it and carry no call. The list favours compounds with an active or inconclusive main result. The note in brackets gives the kind of curve behind each potency; many fits are weak.

Take `O=S(=O)(c1cccs1)N1CCN(Cc2nc3ccccc3s2)CC1`: the half-maximal activity concentration (AC50) – broadly, the concentration giving half of the maximal activity seen – is 1.64 µM [rising, partial curve] under setting [1] and 1.46 µM [rising, full curve] under setting [2].
As to `CCOc1ccc(OCCC(=O)OCC(=O)NC2CC2)cc1`, the cell number change was found to be 3.86%. Also, the AC50 under setting [1] is 5.8 µM [rising, single point]. Moreover, the AC50 under setting [2] is 5.17 µM [rising, partial curve, poor fit].
As to `O=C(Nc1ccc(S(=O)(=O)N2CCOCC2)cc1)c1cccc([N+](=O)[O-])c1`, the cell number change is 16.8%. Further, the concentration at half-maximal activity (AC50) under setting [2] is 20.6 µM [falling, single point].
Take `O=C(Nc1ccc(N=Nc2ccccc2)cc1)c1ccc(Cl)cc1Cl`: the cell number change was -35.2%. For the same compound, the AC50 under setting [1] was 8.2 µM [falling, partial curve, poor fit]. Under setting [2], the AC50 was 2.59 µM [falling, full curve, poor fit].
For the compound `Cc1cccc(NS(=O)(=O)c2cccc(C(=O)N3CCN(C/C=C/c4ccccc4)CC3)c2)c1`, the cell number change is -35.9%. For the same compound, the AC50 under setting [1] is 20.6 µM [falling, partial curve, poor fit].
For `COc1ccccc1CN(C)c1ccc(S(=O)(=O)N2CCN(C)CC2)cn1`, the cell number change is 7.64%. For the same compound, the AC50 under setting [2] was 29.1 µM [rising, single point].
Turning to `CCCC(CCC)C(=O)Nc1cccc(-c2cn3c(n2)SCC3)c1`, the cell number change was determined as 1.19%.
Consider `COc1cc(NC(=O)c2ccc(OC)c([N+](=O)[O-])c2)ccc1NC(=O)c1cccs1`, for which the cell number change came out at 0.862%.
With `Cc1nnc(NC(=O)CSc2nnc(CCNC(=O)c3ccccc3F)n2C)s1`, the cell number change is -13.2%. Also, the AC50 under setting [2] is 3.16 µM [rising, partial curve, poor fit].
Regarding `O=C(NCCc1ccc(F)cc1)c1ccc(NS(=O)(=O)c2ccc3[nH]c(=O)[nH]c3c2)cc1`, the cell number change is -5.55%. The AC50 under setting [1] is 0.82 µM [falling, partial curve, poor fit]. The half-maximal activity concentration (AC50) under setting [2] is 1.3 µM [falling, full curve, poor fit].
In the case of `Cc1ccc(C(=O)NCCc2nnc(SCC(=O)Nc3nc(-c4ccccc4)cs3)n2C)cc1`, the cell number change is -38.5%. In addition, the AC50 under setting [1] is 8.2 µM [falling, partial curve]. Also, the AC50 under setting [2] was 8.2 µM [falling, partial curve].
Turning to `COc1ccc(NC(=O)c2c(NC(=O)CCC(=O)O)sc3c2CCCCC3)cc1`, the cell number change was 30.4%. Under setting [1], the AC50 is 29.1 µM [rising, partial curve].
Consider `COc1ccc(Nc2cc(Cl)ccc2C(=O)O)cn1`, for which the cell number change is -18.2%. Also, the AC50 under setting [1] is 4.61 µM [falling, single point].
In the case of `CN(C)S(=O)(=O)c1cccc(NC(=O)c2ccc(S(=O)(=O)N3CCCC3)cc2)c1`, the cell number change was -24.2%. Further, the AC50 under setting [2] is 1.16 µM [falling, full curve, poor fit].
For `CN(C)S(=O)(=O)c1ccc(S(=O)(=O)NCc2cccs2)cc1`, the cell number change is 33.3%. In addition, the AC50 under setting [1] is 14.6 µM [rising, partial curve].
Consider `CCC(C)(C)N(C(=O)CCC(=O)Nc1cc(C)on1)C(C(=O)NC(C)(C)C)c1ccc(OC)cc1` (stereo not given), for which the cell number change was -35.2%. The AC50 under setting [1] was 11.6 µM [falling, partial curve, poor fit].
As for `CCOC(=O)c1cnc(-n2nc(C)cc2C)nc1NC1CCCCC1`, the cell number change is -20.7%. Further, the half-maximal activity concentration (AC50) under setting [2] was 0.82 µM [falling, full curve, poor fit].
`COc1ccc(S(=O)(=O)N2CC(O)C[C@H]2C(=O)OCC(=O)N2CCCCCC2)cc1` (stereo not given in full): the cell number change amounted to 24%. For the same compound, the AC50 under setting [2] was 16.4 µM [rising, single point].
As for `O=C(Cn1c(NCCO)nc2ccccc21)NCCc1ccc(F)cc1`, the cell number change is -2.15%. For the same compound, the half-maximal activity concentration (AC50) under setting [2] is 6.51 µM [falling, single point].
As to `Cc1ccc[n+](CC(=O)Nc2ccc(C)c(C)c2)c1`, the cell number change was found to be 14.3%.
With `CC(C)(C)C(=O)CN1CCN(C2c3ccccc3-c3ccccc32)CC1`, the AC50 under setting [1] is 6.51 µM [rising, single point].
On to `COc1cccc(N2CCN(Cc3ncc(-c4ccccc4)o3)CC2)c1`, for which the cell number change amounted to 33.8%.
For `CCOC(=O)c1sc2nc(C)nc(Nc3ccc(OC)c(OC)c3)c2c1C`, the cell number change is -56.2%. Moreover, under setting [1], the AC50 is 25.9 µM [falling, single point]. Under setting [2], the AC50 is 29.1 µM [falling, single point].
For the compound `C/C(CC(=O)N1CCN(C=O)CC1)=N\NC(=O)c1cc2ccccc2cc1O`, the cell number change stood at 18.7%. For the same compound, the AC50 under setting [2] was 16.4 µM [rising, partial curve].
As to `COC(=O)CSCc1nc2ccccc2[nH]c1=O`, the AC50 under setting [2] was 0.0058 µM [rising, full curve, poor fit].
Turning to `O=C(Nc1ccc(Br)cc1)c1cc([N+](=O)[O-])cc([N+](=O)[O-])c1`, the cell number change is -29%. Moreover, under setting [2], the AC50 was 16.4 µM [falling, single point].
Take `Cn1c(=O)c(=O)n(C)c2cc(S(=O)(=O)CCC(=O)N3CCCCC3)ccc21`: the cell number change was -16.7%. Besides, the AC50 under setting [2] was 6.51 µM [falling, single point].
Turning to `c1ccc(C(NCCNC(c2ccccc2)c2ccccc2)c2ccccc2)cc1`, the cell number change is -57.9%. The AC50 under setting [1] is 29.1 µM [falling, single point]. For the same compound, the AC50 under setting [2] is 29.1 µM [falling, single point].
With `COc1cc(C(=O)Nc2ccc(NC(=O)c3ccccc3)nc2)cc(OC)c1OC`, the cell number change came out at 5.98%. In addition, under setting [2], the AC50 is 29.1 µM [falling, single point].
As to `O=C(c1cc2cc(Cl)ccc2[nH]1)N1CCN(c2ccccn2)CC1`, the cell number change was 30.5%.
With `CN(CC(=O)N1CCN(Cc2ccccc2)CC1)S(=O)(=O)c1ccc(Br)cc1`, the cell number change is -16.8%. Moreover, the AC50 under setting [2] is 29.1 µM [falling, single point].
With `CC1(C)c2ssc(=S)c2-c2ccccc2N1C(=O)c1ccco1`, under setting [2], the AC50 was 0.731 µM [falling, full curve].
Consider `O=C(CSc1nc2ccccc2[nH]1)c1ccccc1F`, for which the cell number change is -20.6%.
Regarding `CC(C)OCC(O)Cn1c(N2CCCC2)nc2c1c(=O)n(C)c(=O)n2C` (stereo not given), the cell number change was -23.8%. Besides, the AC50 under setting [2] is 29.1 µM [falling, single point].
With `CCC12CN(C(=O)c3ccco3)CC(CC)(CN(C(=O)c3ccco3)C1)C2=O`, the cell number change was -24.6%.
On the same count and under the same terms, under `COc1cc(NC(=O)CN2C(=O)NC3(CCOc4ccccc43)C2=O)cc(OC)c1` (stereo not given) stands -13.8%.
`CC(=O)Nc1ccc(C(=O)Nc2ccc(S(=O)(=O)N3CCCCC3)cc2)cc1`: the cell number change is -15.4%.
In the case of `CCCc1sc(N2CCCC(C(N)=O)C2)nc1-c1ccccc1` (stereo not given), the cell number change is -18.4%. Further, the AC50 under setting [2] is 0.0206 µM [falling, full curve, poor fit].
As to `NS(=O)(=O)c1ccc(CCNS(=O)(=O)c2ccccc2)cc1`, the cell number change was determined as 19.7%. Besides, the concentration at half-maximal activity (AC50) under setting [2] is 6.51 µM [rising, single point].
On to `O=[N+]([O-])c1ccc(NC(=S)NCCc2ccc(Cl)cc2)cc1`, for which the cell number change was -106%. Under setting [1], the AC50 was 18.4 µM [falling, single point]. Moreover, the AC50 under setting [2] is 20.6 µM [falling, single point].
For the compound `COc1cc(/C=C2\SC(=O)NC2=O)ccc1Oc1ccc([N+](=O)[O-])cc1[N+](=O)[O-]`, the cell number change is -60.9%. Further, the AC50 under setting [1] is 0.326 µM [falling, partial curve]. Also, the AC50 under setting [2] was 1.3 µM [falling, full curve].
Regarding `CCOc1ccc(NC(=O)CCNC(=O)c2ccc(Br)cc2)cc1`, the cell number change came to 53.2%. Further, the AC50 under setting [1] is 51.7 µM [rising, partial curve, poor fit]. The AC50 under setting [2] is 29.1 µM [rising, single point].
In the case of `O=C(CN1C(=O)NC2(CCCCCC2)C1=O)NCc1ccco1`, the cell number change is 126%. For the same compound, the AC50 under setting [1] is 6.51 µM [falling, single point]. Moreover, the AC50 under setting [2] is 6.51 µM [falling, single point].
`Cc1nc(N2CCC(C)CC2)c2oc3ccccc3c2n1`: the cell number change was -63.9%. The AC50 under setting [1] was 20.6 µM [falling, partial curve]. Besides, the AC50 under setting [2] is 32.6 µM [falling, partial curve, poor fit].
Turning to `CCN1CCn2c1nc(N1CCOCC1)nc2=O`, the cell number change came to 11.1%. Besides, the AC50 under setting [2] was 18.4 µM [falling, partial curve].
For `CCSc1cnc(-c2ccccc2)n1CC`, the cell number change amounted to 156%. For the same compound, the AC50 under setting [1] is 6.51 µM [falling, single point].
Turning to `CCN(CCNC(=O)CC1Oc2ccccc2NC1=O)c1ccccc1` (stereo not given), the cell number change was -4.42%.
For the compound `O=C(CCC(=O)OCC(=O)c1ccc(C(F)(F)F)cc1)OCC(=O)c1ccc(C(F)(F)F)cc1`, the cell number change is -18.3%.
Turning to `CCCCCc1cc(=O)oc2c(C(CCN3CCCC(C)C3)c3ccc4c(c3)OCO4)c(OC)cc(OC)c12` (stereo not given), the cell number change was -76.5%. The AC50 under setting [1] is 23.1 µM [falling, single point]. Besides, the AC50 under setting [2] was 29.1 µM [falling, single point].
Regarding `O=C1c2cccnc2C(=O)N1c1cccc([N+](=O)[O-])c1`, the cell number change is -1.89%.
Regarding `CCOC(=O)N1CCN(C(=O)CSc2nc3c([nH]c4ccccc43)c(=O)n2CC)CC1`, the cell number change is -48.5%. Under setting [1], the AC50 is 5.17 µM [falling, partial curve].
In the case of `Cc1ccc(NS(=O)(=O)c2ccc3c(c2)oc(=O)n3C)cc1F`, the cell number change is -5.59%. Besides, under setting [2], the concentration at half-maximal activity (AC50) was 0.731 µM [rising, full curve, poor fit].
For the compound `COc1ccc(Nc2sc(C(=O)c3ccc(Cl)cc3)c(N)c2C(=O)Nc2ccccc2OC)cc1`, the cell number change was -8.44%. Further, under setting [2], the AC50 was 2.91 µM [rising, partial curve, poor fit].
As for `CCOc1ccc(CSC(=N)N)cc1Cl`, the AC50 under setting [1] was 5.8 µM [falling, single point].
`CC1Cc2ccccc2N1C(=O)CCn1c(=O)sc2ccccc21` (stereo not given): the cell number change came out at 1.11%. For the same compound, the AC50 under setting [2] was 2.06 µM [rising, partial curve].
Consider `Cc1ccc(C)n1CCN1CCN(C(=O)CC#N)CC1`, for which the cell number change was -31.6%. The AC50 under setting [1] was 18.4 µM [falling, single point]. Under setting [2], the AC50 was 29.1 µM [falling, single point].
`O=C(/C=C/c1ccc(S(=O)(=O)NCc2ccco2)cc1)N1CCN(c2ccccc2)CC1`: the cell number change stood at 48.4%. In addition, the AC50 under setting [1] is 1.03 µM [rising, full curve]. In addition, the AC50 under setting [2] was 10.3 µM [rising, single point].
Turning to `Cc1nnsc1SCCNC(=O)Nc1ccc(Cl)cc1`, the cell number change was -20.2%. The AC50 under setting [1] was 2.24 µM [falling, full curve, poor fit]. Further, under setting [2], the concentration at half-maximal activity (AC50) was 6.31 µM [falling, single point].
